Paper PMC12295781
No constants are given. Whether binding was seen depends on the method and setting. In cells and extracts the contact can be indirect. Some results given as binding are weak or reduced against the parent protein; the word gives no strength.

The chains behind the UniProt entries cited, without tags or fusion partners.
UniProt Q5JSL3: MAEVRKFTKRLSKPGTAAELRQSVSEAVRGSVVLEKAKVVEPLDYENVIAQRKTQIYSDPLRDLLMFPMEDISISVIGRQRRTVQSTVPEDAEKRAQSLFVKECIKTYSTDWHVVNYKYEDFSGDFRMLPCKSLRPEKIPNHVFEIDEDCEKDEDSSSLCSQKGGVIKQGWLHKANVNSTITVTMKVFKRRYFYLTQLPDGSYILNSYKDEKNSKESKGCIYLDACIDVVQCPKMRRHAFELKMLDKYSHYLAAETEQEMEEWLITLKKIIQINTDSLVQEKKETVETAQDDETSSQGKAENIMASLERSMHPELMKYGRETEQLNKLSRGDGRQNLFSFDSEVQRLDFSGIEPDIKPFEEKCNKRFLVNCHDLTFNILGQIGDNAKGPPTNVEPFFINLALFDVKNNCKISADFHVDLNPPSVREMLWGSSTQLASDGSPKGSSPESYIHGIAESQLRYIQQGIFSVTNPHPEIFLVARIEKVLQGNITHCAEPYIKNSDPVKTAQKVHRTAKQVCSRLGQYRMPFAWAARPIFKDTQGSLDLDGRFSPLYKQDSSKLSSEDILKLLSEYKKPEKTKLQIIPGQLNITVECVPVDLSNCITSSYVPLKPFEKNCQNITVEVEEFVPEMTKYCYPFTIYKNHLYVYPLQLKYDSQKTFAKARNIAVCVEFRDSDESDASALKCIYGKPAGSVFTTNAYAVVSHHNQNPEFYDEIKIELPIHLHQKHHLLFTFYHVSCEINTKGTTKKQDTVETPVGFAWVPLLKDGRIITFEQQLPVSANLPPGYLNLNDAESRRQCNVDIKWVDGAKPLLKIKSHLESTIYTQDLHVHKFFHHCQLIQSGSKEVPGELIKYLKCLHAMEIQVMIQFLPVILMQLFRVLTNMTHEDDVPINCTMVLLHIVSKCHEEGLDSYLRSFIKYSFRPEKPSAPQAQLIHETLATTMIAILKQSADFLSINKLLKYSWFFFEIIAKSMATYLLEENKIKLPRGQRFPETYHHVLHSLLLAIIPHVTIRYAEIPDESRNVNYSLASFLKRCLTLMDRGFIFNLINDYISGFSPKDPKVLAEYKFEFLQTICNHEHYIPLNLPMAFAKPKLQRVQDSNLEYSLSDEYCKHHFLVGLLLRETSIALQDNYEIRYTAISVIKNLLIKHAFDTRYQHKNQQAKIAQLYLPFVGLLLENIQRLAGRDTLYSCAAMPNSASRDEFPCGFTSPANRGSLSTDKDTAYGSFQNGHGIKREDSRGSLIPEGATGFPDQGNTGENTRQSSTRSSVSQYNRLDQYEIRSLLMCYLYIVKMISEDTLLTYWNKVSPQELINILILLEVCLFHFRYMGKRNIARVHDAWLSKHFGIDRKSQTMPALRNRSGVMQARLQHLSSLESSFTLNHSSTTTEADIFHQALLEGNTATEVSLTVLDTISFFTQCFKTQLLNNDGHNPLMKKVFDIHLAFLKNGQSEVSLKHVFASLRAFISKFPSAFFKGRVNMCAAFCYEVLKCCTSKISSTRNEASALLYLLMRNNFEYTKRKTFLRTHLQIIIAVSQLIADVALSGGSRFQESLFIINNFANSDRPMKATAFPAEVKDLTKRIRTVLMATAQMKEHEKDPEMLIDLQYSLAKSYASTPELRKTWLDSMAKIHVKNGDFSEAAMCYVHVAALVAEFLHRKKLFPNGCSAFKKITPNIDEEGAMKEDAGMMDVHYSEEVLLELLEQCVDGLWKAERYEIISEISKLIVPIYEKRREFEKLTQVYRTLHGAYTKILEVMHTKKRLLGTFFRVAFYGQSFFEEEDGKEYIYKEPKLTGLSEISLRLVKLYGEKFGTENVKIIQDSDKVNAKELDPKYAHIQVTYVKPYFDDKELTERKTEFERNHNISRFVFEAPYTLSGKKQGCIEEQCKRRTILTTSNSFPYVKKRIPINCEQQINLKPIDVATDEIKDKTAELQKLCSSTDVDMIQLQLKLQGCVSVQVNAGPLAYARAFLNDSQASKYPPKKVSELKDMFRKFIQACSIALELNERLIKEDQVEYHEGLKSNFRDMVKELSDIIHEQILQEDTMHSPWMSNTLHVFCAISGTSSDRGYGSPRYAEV
UniProt P03146: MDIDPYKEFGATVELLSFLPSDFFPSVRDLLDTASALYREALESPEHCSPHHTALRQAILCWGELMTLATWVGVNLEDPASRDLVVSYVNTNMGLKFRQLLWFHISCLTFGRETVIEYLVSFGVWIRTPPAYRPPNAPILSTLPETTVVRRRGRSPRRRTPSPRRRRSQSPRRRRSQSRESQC
UniProt P35222: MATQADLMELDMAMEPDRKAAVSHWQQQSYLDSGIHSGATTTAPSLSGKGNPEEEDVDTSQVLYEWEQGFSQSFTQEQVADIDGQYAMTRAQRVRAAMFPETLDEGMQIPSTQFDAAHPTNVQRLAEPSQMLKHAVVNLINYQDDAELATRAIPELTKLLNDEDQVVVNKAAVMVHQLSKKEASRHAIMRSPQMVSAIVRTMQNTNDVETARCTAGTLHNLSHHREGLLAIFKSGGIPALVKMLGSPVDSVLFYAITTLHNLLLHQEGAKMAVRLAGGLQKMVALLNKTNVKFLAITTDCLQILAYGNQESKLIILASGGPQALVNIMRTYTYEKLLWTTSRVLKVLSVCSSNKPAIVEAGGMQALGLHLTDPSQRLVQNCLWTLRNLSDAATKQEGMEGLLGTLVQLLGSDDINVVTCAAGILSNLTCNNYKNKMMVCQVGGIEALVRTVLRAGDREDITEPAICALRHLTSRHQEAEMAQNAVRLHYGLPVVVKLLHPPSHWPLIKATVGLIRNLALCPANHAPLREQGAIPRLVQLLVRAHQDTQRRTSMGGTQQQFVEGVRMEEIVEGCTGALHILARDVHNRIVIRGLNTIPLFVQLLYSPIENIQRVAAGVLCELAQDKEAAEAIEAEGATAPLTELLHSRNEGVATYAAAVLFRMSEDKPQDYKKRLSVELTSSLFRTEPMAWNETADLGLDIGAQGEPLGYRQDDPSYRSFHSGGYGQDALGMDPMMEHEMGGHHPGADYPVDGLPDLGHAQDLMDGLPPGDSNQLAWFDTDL

Tests used:
Halo-DOCK11 = Halo-DOCK11 (UniProt Q5JSL3); test: co-IP; HepG2-NTCP-C4 cells transfected with Halo-DOCK11 plasmid, with or without HBV infection (virions from HepAD38 cells); lysate in 25 mM Tris, 150 mM NaCl, 1 mM EDTA, 1% NP-40, 5% glycerol, pH 7.4; Halo-Trap magnetic particles M270, 4 °C, 1 h; immunoblot for Halo, β-catenin, HBc
[1] = target: dedicator of cytokinesis 11 (DOCK11), endogenous (human (endogenous in PXB cells and HepG2.2.15 cells)) (UniProt Q5JSL3); test: co-IP; whole-cell extracts of HBV-infected PXB cells or of HepG2.2.15 cells incubated with 10 μg anti-DOCK11 antibody (A301-638A, Bethyl) overnight at 4 °C, Protein G magnetic beads 3 h at 4 °C, four washes (Universal Magnetic CO-IP kit); Western blot for β-catenin

Substance	binding (Halo-DOCK11)	binding [1]
HBV capsid protein (HBc) (from UniProt P03146 1-183)	binds	–
β-catenin, endogenous in HBV-infected PXB cells (from UniProt P35222 1-781)	–	binds
